Construct, isoform or probe ends are uncertain for at least one entry. Where cells or extracts were used, other partners may take part. For some of these results: The comparison behind a weaker result is the experiment's own reference, which may not be listed here. For some of these results: At least one verdict was read from the data and is not stated in words by the source.
How the values were obtained:
Assay in all cases: EMSA with supershift
Details in all cases: 10 mM MgCl2, 2 mM ATP, 20 mM beta-glycerophosphate, protein in an extract, label: 32P 5' end
[1] = target: Sp1, mitotic or TOPK-treated (linker-phosphorylated) (Homo sapiens (HeLa)) (UniProt P08047)
[2] = target: Sp1 (S-phase/asynchronous HeLa extract) (Homo sapiens (HeLa)) (UniProt P08047)
[3] = target: YY1 (S-phase/asynchronous HeLa extract) (Homo sapiens (HeLa)) (UniProt P25490)
[4] = target: YY1, mitotic or TOPK-treated (linker-phosphorylated) (Homo sapiens (HeLa)) (UniProt P25490)
[5] = mitotic cells treated with 1 uM K252a 10 min, binding partially restored, linker phosphorylation inhibited
[6] = thymidine extract + active GST-TOPK, ATP
[7] = thymidine (S-phase) extract, kinase buffer, no GST-TOPK

Chains of the proteins cited; added tags and fusions are not shown. Residues count along the entry.
UniProt P08047, 2-785: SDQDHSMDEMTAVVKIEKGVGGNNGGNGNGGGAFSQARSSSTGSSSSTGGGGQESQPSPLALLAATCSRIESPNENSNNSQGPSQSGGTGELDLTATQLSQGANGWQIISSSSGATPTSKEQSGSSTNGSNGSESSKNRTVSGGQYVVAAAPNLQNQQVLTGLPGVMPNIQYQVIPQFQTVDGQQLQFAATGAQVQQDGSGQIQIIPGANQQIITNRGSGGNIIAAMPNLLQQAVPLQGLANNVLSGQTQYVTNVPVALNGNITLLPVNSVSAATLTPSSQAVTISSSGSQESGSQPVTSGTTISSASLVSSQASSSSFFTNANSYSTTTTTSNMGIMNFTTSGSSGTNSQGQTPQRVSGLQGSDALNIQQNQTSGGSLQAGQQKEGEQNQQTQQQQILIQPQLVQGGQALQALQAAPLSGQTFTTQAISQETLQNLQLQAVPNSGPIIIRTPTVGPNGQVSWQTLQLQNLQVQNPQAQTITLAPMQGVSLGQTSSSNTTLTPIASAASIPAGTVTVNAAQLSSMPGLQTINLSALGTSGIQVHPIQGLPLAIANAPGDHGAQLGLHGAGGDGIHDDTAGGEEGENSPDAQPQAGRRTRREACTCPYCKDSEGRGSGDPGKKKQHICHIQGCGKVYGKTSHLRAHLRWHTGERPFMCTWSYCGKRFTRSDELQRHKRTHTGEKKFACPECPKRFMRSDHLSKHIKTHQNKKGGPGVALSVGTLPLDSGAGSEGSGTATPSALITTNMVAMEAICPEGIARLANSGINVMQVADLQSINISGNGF
UniProt P25490, whole entry: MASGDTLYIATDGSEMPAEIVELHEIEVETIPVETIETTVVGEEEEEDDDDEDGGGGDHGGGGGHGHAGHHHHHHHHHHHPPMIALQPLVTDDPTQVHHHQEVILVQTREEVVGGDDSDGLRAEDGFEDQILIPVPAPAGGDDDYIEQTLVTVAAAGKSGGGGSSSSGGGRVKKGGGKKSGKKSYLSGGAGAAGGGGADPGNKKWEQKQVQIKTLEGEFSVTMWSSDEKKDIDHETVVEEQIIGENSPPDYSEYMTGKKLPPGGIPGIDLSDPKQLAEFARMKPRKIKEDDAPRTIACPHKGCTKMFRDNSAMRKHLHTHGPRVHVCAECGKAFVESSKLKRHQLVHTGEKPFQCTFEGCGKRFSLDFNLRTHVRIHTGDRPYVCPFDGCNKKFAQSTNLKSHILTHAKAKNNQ

Row | Sequence | binding result [1, 5] | binding result ([1]; nocodazole (mitotic) extract) | binding result [1, 6] | binding result ([2]; asynchronous HeLa extract) | binding result [2, 7] | binding result ([3]; asynchronous HeLa extract) | binding result [3, 7] | binding result [4, 5] | binding result ([4]; nocodazole (mitotic) extract) | binding result [4, 6]
1 | ATTCGATCGGGGCGGGGCGAGC (double strand) [Sp1 consensus oligo] | binds | binds more weakly | binds more weakly | binds | binds | – | – | – | – | –
2 | GATCCTCGGCCGTCATGGCGCTGCAGGAGGCA (double strand) [H3.2alpha YY1 site oligo] | – | – | – | – | – | binds | binds | binds | binds more weakly | binds more weakly
